The values that follow come from PubChem BioAssay AID328 (DTP/NCI, 2004).

The list is a part of this screen's results and no random one: it gathers tests that were run many times, whatever their T/C, doses with no T/C, and many T/C values between a quarter and a half above the control. Further doses and runs are listed elsewhere. T/C: endpoint of the treated group in % of that of the vehicle group. Some entries give survivors of the animals treated and no T/C: the source files T/C as zero there, which appears to mark a toxic dose or a test without result, not a measured value. Some doses without a T/C left all or most animals alive at the check, yet need not have been tolerated: the source hardly ever lists a survival T/C far under the control, and the zero likely stands for such cases as well. Counts of survivors are from the toxicity check (mostly the fifth day) where no day follows; animals may have died later. Schedules are NCI's codes, read here as Q, the interval in days (D) or hours (H), X, the number of doses. Where survival is the endpoint, this PubChem deposit counts one and a half times the control or more as active, and values a quarter to a half above the control carry no call in these data; other NCI protocols may use other cut-offs. Some T/C values are followed by the survivors on the day toxicity was checked, most often the fifth; where none is given, no animal had died by that day. Some entries hold several experiments; their values stand side by side, smallest first.

The assay concerns BDF1 mice, P388 leukemia ip, median survival T/C. The assay is described as follows: NCI In Vivo Anticancer Drug Screen. Data for tumor model P388 Leukemia (intraperitoneal) in B6D2F1 (BDF1) mice. Conditions: T/C endpoint: median survival time, higher T/C = longer survival. Put shortly:
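In tumour-bearing mice, survival after compound treatment is set against the vehicle group and given as a quotient.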

The mark [1] stands for this setting: dose: 100.0 mg/kg/injection, schedule: Q01DX009 (ip), vehicle: Klucel (hydroxypropylcellulose) (HPC).
[2] abbreviates: dose: 400.0 mg/kg/injection, schedule: Q01DX009 (ip), vehicle: Klucel (hydroxypropylcellulose) (HPC).
[3] abbreviates: dose: 100.0 mg/kg/injection, schedule: Q01DX009 (ip), vehicle: saline with Tween-80.
Where [4] appears, read: dose: 200.0 mg/kg/injection, schedule: Q01DX009 (ip), vehicle: saline with Tween-80.
Setting [5] is: dose: 25.0 mg/kg/injection, schedule: Q01DX009 (ip), vehicle: water.

As to `COc1cc(C=Nc2cc(Cl)c(O)c(Cl)c2)ccc1N(CCCl)CCCl`, the T/C (dose: 3.0 mg/kg/injection, schedule: Q04DX003 (ip), vehicle: saline with Tween-80) was 140 % of control and the T/C (dose: 25.0 mg/kg/injection, schedule: Q04DX003 (ip), vehicle: saline with Tween-80) was 144 % of control.

As to `O=[N+]([O-])c1cccc(OCCOc2ccc(S(=O)(=O)F)cc2)c1`, the survivor count (dose: 200.0 mg/kg/injection, schedule: Q04DX003 (ip), vehicle: saline with Tween-80) is 6 of 6.

Consider `CN=C(NC(C)C)c1ccc(NC(=O)c2ccc(C(=O)Nc3ccc(C(=NC)NC(C)C)cc3)cc2)cc1`, for which the T/C by setting is: (dose: 32.0 mg/kg/injection, schedule: Q04DX003 (ip), vehicle: saline with Tween-80) 131 % of control; (dose: 64.0 mg/kg/injection, schedule: Q04DX003 (ip), vehicle: saline with Tween-80) 136 % of control.

As to `CCOC(=O)C(Cc1ccc(N(CCCl)CCCl)cc1)NC=O` (stereo unspecified), under “dose: 66.0 mg/kg/injection, schedule: Q04DX003 (ip), vehicle: saline with Tween-80”, the survivor count was 6 of 6. Also, the T/C (dose: 1500.0 micrograms/kg/injection, schedule: Q04DX003 (ip), vehicle: saline with Tween-80) is 130 % of control.

On to `C1#CCCCCCC#CCCCC1`, for which the T/C reads like this: (dose: 24.75 mg/kg/injection, schedule: Q01DX009 (ip), vehicle: saline with Tween-80) 127 % of control; (dose: 37.5 mg/kg/injection, schedule: Q01DX009 (ip), vehicle: acetone) 136 % of control; (dose: 37.5 mg/kg/injection, schedule: Q01DX009 (ip), vehicle: saline with Tween-80) 136 % of control; (dose: 56.25 mg/kg/injection, schedule: Q01DX009 (ip), vehicle: saline with Tween-80) 136 % of control; (dose: 75.0 mg/kg/injection, schedule: Q01DX009 (ip), vehicle: acetone) 131 % of control. For the setting “dose: 150.0 mg/kg/injection, schedule: Q01DX009 (ip), vehicle: acetone”, the survivor count is reported as 2 of 6.

Take `N#[N+]c1cnc([O-])[nH]c1=O`: the T/C is, setting by setting: (dose: 1.25 mg/kg/injection, schedule: Q01DX010 (ip), vehicle: saline) 145 % of control; (dose: 2.5 mg/kg/injection, schedule: Q01DX010 (ip), vehicle: saline) 145 % of control.

As for `NC(=O)c1nc(C(F)(F)F)[nH]c1C(N)=O`, the survivor count runs as follows: (dose: 400.0 mg/kg/injection, schedule: Q01DX009 (ip), vehicle: water) 0 of 6; (dose: 500.0 mg/kg/injection, schedule: Q01DX009 (ip), vehicle: water) 3 of 6.

Take `CC1=NNC(=O)C1CCO` (stereo unspecified): the survivor count under setting [1] is 3 of 3. Also, the T/C by setting is: (dose: 200.0 mg/kg/injection, schedule: Q01DX009 (ip), vehicle: Klucel (hydroxypropylcellulose) (HPC)) 126 % of control; under setting [2], 127 and 147 % of control.

Regarding `Clc1ccc(N=Cc2cccs2)cc1`, the survivor count (dose: 25.0 mg/kg/injection, schedule: Q01DX009 (ip), vehicle: saline with Tween-80) is 6 of 6.

As for `CCc1ccc2c(c1)N(CCCN(CCCl)CCCl)c1ccccc1S2`, the T/C was 131 % of control (dose: 3.1 mg/kg/injection, schedule: Q04DX003 (ip), vehicle: saline with Tween-80); 135 and 137 % of control (dose: 6.25 mg/kg/injection, schedule: Q04DX003 (ip), vehicle: saline with Tween-80); 144 and 149 % of control [5 of 6 alive] (dose: 12.5 mg/kg/injection, schedule: Q04DX003 (ip), vehicle: saline with Tween-80).

Consider `N#CCCCCCl`, for which the survivor count runs as follows: (dose: 200.0 mg/kg/injection, schedule: Q01DX001 (ip), vehicle: saline) 2 of 6; (dose: 400.0 mg/kg/injection, schedule: Q01DX001 (ip), vehicle: saline) 0 of 6.

Take `CCOC(=O)c1cc2ccccc2oc1=O`: the survivor count under setting [3] is 6 of 6.

On to `Cc1cccc(CSc2ncnc3nc[nH]c23)n1`, for which the survivor count by setting is: (dose: 200.0 mg/kg/injection, schedule: Q04DX003 (ip), vehicle: Klucel (hydroxypropylcellulose) (HPC)) 6 of 6; (dose: 400.0 mg/kg/injection, schedule: Q04DX003 (ip), vehicle: Klucel (hydroxypropylcellulose) (HPC)) 6 of 6.

`CCO/C=C1\SC(=S)N(c2ccccc2OC)C1=O`: the T/C reads like this: (dose: 132.0 mg/kg/injection, schedule: Q01DX009 (ip), vehicle: saline with Tween-80) 127 % of control; under setting [4], 136 % of control; (dose: 300.0 mg/kg/injection, schedule: Q01DX009 (ip), vehicle: saline with Tween-80) 136 % of control. The survivor count under setting [2] is listed as 5 of 6.

`CC(C)(C)c1cccc(C(C)(C)C)c1`: the survivor count (dose: 400.0 mg/kg/injection, schedule: Q01DX001 (ip), vehicle: saline with Tween-80) was 4 of 6.

In the case of `COc1cc2cc(c1Cl)N(C)C(=O)CC(OC(C)=O)C1(C)OC1C(C)C1CC(O)(NC(=O)O1)C(OC)C=C/C=C(\C)C2` (stereo unspecified), the T/C (dose: 0.1 micrograms/kg/injection, schedule: Q01DX009 (ip), vehicle: saline + alcohol) was 135 % of control; the T/C (dose: 3.1 micrograms/kg/injection, schedule: Q01DX009 (ip), vehicle: saline + alcohol) is 133 % of control; the T/C (dose: 6.2 micrograms/kg/injection, schedule: Q01DX009 (ip), vehicle: saline + alcohol) is 145 % of control; the T/C (dose: 12.5 micrograms/kg/injection, schedule: Q01DX009 (ip), vehicle: saline + alcohol) was 140 % of control. In addition, the survivor count is 1 of 4 (dose: 200.0 micrograms/kg/injection, schedule: Q01DX009 (ip), vehicle: saline + alcohol) and 0 of 4 (dose: 400.0 micrograms/kg/injection, schedule: Q01DX009 (ip), vehicle: saline + alcohol).

Consider `Cc1cc2nc(Oc3ccccc3)nc(=O)n2c(C)n1`, for which the survivor count reads like this: (dose: 50.0 mg/kg/injection, schedule: Q01DX009 (ip), vehicle: saline with Tween-80) 1 of 6; under setting [3], 5 of 6; under setting [4], 0 of 6.

Turning to `c1ccc([P+](CCN2Cc3ccccc3C2)(c2ccccc2)c2ccccc2)cc1`, the survivor count by setting is: (dose: 25.0 mg/kg/injection, schedule: Q01DX009 (ip), vehicle: saline) 6 of 6; (dose: 50.0 mg/kg/injection, schedule: Q01DX009 (ip), vehicle: saline) 1 of 6.

With `CCS(=O)c1ncc2cnccn12` (stereo unspecified), the survivor count is, setting by setting: (dose: 12.5 mg/kg/injection, schedule: Q04DX003 (ip), vehicle: water) 6 of 6; under setting [5], 5 of 6; (dose: 25.0 mg/kg/injection, schedule: Q04DX003 (ip), vehicle: water) 6 of 6; (dose: 50.0 mg/kg/injection, schedule: Q04DX003 (ip), vehicle: water) 6 of 6; (dose: 100.0 mg/kg/injection, schedule: Q04DX003 (ip), vehicle: water) 3 of 6; (dose: 200.0 mg/kg/injection, schedule: Q01DX009 (ip), vehicle: water) 1 of 6. Also, the survivor count (dose: 200.0 mg/kg/injection, schedule: Q04DX003 (ip), vehicle: water) is reported as 0 of 6.

In the case of `COc1cc2c3c(c1O)C1(C=CC(=O)C=C1)CC3N(C)CC2` (stereo unspecified), the T/C under setting [4] was 133 % of control [5 of 6 alive]. In addition, under “dose: 400.0 mg/kg/injection, schedule: Q01DX009 (ip), vehicle: saline with Tween-80”, the survivor count is given as 4 of 6.

On to `CCN(CC)Cc1c(C)[nH]c2ccc(N(C)C)cc2c1=O`, for which the survivor count is 6 of 6 (dose: 0.78 mg/kg/injection, schedule: Q01DX009 (ip), vehicle: water); 6 of 6 (dose: 12.5 mg/kg/injection, schedule: Q01DX009 (ip), vehicle: water); 6 of 6 under setting [5]; 6 of 6 under setting [1]; 5 of 6 (dose: 200.0 mg/kg/injection, schedule: Q04DX003 (ip), vehicle: saline); 2 of 6 (dose: 400.0 mg/kg/injection, schedule: Q04DX003 (ip), vehicle: saline). Moreover, the T/C (dose: 6.25 mg/kg/injection, schedule: Q01DX009 (ip), vehicle: water) is 129 % of control.
